Data: the supplement of paper PMC10849652
The other results are listed elsewhere or left out.

Amino acid sequences for entries named in this document (tags omitted). A change or cut given only in a name is not applied to a line headed by its entry.
UniProt Q92901: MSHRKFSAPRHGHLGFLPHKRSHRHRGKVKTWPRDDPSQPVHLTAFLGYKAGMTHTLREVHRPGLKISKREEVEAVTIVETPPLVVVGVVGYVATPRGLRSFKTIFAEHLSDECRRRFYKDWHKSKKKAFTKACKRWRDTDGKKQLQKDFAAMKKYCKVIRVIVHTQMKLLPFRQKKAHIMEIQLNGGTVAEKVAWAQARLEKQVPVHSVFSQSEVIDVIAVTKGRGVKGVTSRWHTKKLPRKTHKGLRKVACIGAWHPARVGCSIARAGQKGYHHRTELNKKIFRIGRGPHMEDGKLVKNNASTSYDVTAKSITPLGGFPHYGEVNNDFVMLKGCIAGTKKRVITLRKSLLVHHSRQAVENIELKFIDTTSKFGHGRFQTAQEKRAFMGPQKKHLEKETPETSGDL
UniProt Q8N122, whole entry, looked up: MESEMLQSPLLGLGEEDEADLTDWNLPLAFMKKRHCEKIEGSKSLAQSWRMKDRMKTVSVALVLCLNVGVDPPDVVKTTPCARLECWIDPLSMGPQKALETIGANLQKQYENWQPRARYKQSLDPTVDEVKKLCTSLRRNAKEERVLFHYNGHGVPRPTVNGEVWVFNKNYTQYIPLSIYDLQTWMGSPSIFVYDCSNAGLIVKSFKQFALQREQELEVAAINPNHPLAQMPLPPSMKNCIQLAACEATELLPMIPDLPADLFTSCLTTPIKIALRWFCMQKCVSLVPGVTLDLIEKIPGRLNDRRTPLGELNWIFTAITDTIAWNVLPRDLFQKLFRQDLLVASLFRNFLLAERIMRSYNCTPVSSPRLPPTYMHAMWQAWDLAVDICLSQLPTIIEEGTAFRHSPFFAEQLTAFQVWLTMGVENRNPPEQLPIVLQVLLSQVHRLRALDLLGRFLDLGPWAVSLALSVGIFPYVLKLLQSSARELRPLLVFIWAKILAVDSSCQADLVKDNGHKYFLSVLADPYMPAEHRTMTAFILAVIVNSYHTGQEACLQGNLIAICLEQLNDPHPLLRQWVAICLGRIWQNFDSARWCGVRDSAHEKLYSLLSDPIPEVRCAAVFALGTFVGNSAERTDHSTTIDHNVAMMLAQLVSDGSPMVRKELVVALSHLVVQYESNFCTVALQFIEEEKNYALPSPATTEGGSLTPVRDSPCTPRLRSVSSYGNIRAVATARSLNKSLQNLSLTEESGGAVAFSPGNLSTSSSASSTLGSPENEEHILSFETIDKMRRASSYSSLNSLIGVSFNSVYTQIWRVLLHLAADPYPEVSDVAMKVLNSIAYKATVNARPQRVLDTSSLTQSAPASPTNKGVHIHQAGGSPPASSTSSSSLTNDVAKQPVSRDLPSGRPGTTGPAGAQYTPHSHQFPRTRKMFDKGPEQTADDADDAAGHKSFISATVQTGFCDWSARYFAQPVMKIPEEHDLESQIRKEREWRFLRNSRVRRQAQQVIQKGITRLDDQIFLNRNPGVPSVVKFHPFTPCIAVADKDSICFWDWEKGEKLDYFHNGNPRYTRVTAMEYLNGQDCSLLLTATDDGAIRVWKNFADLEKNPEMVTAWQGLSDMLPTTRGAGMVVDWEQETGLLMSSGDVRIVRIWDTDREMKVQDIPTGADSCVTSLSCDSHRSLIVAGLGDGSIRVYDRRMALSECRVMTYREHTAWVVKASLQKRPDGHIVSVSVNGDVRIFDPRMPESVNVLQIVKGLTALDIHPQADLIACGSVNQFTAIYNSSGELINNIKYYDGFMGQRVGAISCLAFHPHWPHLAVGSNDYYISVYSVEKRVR
UniProt Q96AT9: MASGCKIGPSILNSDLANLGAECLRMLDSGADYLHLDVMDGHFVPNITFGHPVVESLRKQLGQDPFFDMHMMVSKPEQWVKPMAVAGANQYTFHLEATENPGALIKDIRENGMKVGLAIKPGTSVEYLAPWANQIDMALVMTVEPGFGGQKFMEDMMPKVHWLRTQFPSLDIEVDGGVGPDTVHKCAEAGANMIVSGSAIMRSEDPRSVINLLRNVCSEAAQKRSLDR
UniProt Q01974, whole entry, looked up: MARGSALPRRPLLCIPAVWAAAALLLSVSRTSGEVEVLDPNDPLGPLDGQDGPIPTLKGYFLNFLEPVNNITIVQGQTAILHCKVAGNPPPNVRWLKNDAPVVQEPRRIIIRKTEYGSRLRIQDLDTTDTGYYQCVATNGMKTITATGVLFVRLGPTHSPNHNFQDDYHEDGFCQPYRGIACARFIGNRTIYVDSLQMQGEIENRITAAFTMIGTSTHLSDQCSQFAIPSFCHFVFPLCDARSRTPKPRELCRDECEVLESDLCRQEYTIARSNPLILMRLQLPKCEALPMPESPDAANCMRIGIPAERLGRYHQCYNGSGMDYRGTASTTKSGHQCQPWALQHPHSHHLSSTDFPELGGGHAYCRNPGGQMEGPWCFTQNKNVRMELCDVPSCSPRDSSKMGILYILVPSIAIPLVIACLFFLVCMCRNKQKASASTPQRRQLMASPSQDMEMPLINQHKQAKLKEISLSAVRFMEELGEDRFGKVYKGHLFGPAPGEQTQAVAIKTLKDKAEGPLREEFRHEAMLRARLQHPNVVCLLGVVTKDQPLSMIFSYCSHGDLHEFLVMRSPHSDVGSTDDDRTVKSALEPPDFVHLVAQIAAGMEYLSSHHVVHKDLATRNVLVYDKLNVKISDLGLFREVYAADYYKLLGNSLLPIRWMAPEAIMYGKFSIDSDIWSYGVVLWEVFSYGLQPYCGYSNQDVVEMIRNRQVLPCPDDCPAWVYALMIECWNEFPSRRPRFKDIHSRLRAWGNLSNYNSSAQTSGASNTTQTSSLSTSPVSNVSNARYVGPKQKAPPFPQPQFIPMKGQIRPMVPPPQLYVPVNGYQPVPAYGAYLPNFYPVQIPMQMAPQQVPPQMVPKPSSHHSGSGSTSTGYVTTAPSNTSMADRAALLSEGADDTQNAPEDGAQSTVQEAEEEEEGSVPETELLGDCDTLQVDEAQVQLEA
UniProt Q9BUL9: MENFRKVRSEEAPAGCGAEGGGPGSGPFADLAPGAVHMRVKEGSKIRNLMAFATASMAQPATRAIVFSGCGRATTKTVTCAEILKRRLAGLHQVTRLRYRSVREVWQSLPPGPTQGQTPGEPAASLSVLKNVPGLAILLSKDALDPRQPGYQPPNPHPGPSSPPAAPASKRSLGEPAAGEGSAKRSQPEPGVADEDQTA
UniProt Q9HB90, whole entry, looked up: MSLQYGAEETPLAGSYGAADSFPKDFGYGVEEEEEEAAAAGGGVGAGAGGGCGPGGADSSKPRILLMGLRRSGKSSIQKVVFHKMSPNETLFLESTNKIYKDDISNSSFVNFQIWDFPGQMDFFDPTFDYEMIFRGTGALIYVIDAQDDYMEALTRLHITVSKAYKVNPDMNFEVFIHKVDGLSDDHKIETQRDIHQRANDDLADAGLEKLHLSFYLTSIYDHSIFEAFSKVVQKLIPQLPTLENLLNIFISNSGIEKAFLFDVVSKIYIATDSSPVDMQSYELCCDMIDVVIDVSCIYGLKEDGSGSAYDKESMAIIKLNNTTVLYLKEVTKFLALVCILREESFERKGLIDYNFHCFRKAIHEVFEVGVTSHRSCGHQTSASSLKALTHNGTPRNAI

Key:
Experiment in all cases: log2 fold change, soluble protein after heating vs DMSO (PISA); higher = thermal stabilisation; K562 cells, 10 uM, 30 min; active = over 0.2 and 3.5 SD of the protein, either way, in both replicates (recomputed)
[1] = compound: C1=CC=C(C=C1)[C@H](COC2=CC3=C(C=C2)NC(=O)N3)NC(=O)C4=CC=CN(C4=O)CC5=CC(=C(C=C5)F)F
Outline: (§1)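 K562 cells (2×10^6 cells/mL) were treated with 10 μM compound for 30 min, and aliquots were heated for 3 min over 48°C-58°C. Pooled aliquots were extracted in PBS with 0.5% NP-40 at 4°C, and the supernatant after 21,000xg for 90 min was measured by TMTpro 16plex LC-MS/MS with channel sums equalised. Reported thermal stability, relative to control samples and from duplicates, is a log2 fold change.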

[2] = compound: CC1=C(SC2=C1C(=N[C@H](C3=NN=C(N32)C)CC(=O)N)C4=CC=C(C=C4)Cl)C
Outline: as §1

[3] = compound: CC1=C2C(=CC=C1)N=C(N(C2=O)C3=CC=CC=C3C)CN4C=NC5=C(N=CN=C54)N
Outline: as §1

[4] = compound: Cc1sc2c(c1C)C(c1ccc(Cl)cc1)=N[C@@H](CC(=O)OC(C)(C)C)c1nnc(C)n1-2
Outline: as §1

[5] = compound: c1ccc([C@@H]2C[C@H]2NC2CCNCC2)cc1
Outline: as §1

Measured: log2 fold change

RPL3L (UniProt Q92901)
inactive: [1] 0.226 | [2] -0.475 | [3] -0.739 | [4] 0.327 | [5] 0

RPS23 (UniProt P62266)
inactive: [1] 0.151 | [2] -0.312 | [3] -0.179 | [4] 0.246 | [5] -0.034

RPTOR (UniProt Q8N122)
inactive: [1] -0.022 | [2] -0.015 | [3] 0.095 | [4] -0.02 | [5] 0.032

RPE (UniProt Q96AT9)
inactive: [1] -0.048 | [2] 0.038 | [3] -0.033 | [4] -0.136 | [5] 0.068

ROR2 (UniProt Q01974)
inactive: [1] -0.062 | [2] 0.004 | [3] 0.023 | [4] -0.048 | [5] -0.035

RPL18 (UniProt Q07020)
inactive: [1] 0.268 | [2] -0.648 | [3] -0.673 | [4] 0.399 | [5] 0.003

RPP25 (UniProt Q9BUL9)
inactive: [1] 0.006 | [2] -0.059 | [3] -0.009 | [4] 0.074 | [5] -0.039

RRAGC (UniProt Q9HB90)
inactive: [1] 0.009 | [2] 0.104 | [3] 0.095 | [4] -0.041 | [5] 0.009

RPL38 (UniProt P63173)
inactive: [1] 0.012 | [2] -0.03 | [3] -0.046 | [4] 0.053 | [5] 0.013
